# Reference: article PMC6404604
# By UniProt entry, the sequences of proteins in these tests, tags left out. Where a name states a change or a piece, a line headed by the entry shows the natural chain unless it says otherwise.
# UniProt P34216: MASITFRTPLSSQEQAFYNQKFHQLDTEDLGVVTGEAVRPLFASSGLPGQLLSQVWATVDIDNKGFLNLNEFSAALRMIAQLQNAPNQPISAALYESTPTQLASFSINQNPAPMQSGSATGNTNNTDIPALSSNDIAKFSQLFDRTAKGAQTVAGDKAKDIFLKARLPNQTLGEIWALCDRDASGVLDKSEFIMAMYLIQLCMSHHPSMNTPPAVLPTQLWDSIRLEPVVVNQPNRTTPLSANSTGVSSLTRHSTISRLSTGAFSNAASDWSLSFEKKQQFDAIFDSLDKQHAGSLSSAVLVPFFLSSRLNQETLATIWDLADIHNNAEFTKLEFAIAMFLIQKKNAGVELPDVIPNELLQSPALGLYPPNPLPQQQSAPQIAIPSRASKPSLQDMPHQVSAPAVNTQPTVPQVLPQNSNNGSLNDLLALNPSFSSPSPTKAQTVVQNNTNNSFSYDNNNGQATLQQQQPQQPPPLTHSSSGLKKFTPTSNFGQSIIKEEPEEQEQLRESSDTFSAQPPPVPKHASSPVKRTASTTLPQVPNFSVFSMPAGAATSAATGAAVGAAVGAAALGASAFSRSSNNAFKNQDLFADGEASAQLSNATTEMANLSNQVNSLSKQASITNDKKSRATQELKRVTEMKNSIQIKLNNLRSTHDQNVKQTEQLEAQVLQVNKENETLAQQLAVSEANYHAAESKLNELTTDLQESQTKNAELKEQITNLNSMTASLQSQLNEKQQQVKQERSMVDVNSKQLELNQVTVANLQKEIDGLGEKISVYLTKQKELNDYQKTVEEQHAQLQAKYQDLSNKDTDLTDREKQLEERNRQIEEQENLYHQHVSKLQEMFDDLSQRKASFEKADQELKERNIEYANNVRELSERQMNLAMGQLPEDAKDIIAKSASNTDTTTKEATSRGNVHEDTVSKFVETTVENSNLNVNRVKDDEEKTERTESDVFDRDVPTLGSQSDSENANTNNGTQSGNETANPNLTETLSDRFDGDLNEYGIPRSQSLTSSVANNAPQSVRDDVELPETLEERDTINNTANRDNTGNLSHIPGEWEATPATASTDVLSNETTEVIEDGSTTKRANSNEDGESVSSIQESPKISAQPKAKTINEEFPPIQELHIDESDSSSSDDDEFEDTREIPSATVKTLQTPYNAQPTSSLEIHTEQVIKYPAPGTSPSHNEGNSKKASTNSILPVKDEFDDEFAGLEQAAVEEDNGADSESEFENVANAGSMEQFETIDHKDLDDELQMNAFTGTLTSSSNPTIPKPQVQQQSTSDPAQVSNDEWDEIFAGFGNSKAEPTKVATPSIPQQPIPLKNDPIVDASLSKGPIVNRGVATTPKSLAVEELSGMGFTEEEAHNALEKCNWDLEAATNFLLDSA
# These are yes or no findings as the source states them, for the method shown. Binding seen in cells or lysates may run through a third protein. A result given as binding can be weak or reduced; the word gives no strength. Sequences can lack the tags named with a protein.
# Molecular target: His6-Ede1 (EH1-3) (S. cerevisiae) (UniProt P34216)
# Experiment: pull-down; purified His6-tagged protein (~30 ug) held on Ni-NTA agarose beads, incubated with 200 ul yeast lysate for 2 hr at 4 degrees; lysis buffer 10 mM Tris pH 8.0, 140 mM NaCl, 0.1% Tween-20, 1 mM beta-mercaptoethanol; detection by anti-GFP immunoblot; only the target purified
row,Binder,binding
1,"Pal2-GFP (protein, UniProt P38809 1-366) MNQTGRTIGGPQNGVNTVINPFRVSPSEDRVSSRDETPRNYNNPFLNEDDTRRAHNSSVSNSRQERLPSYEEAAGTPKQQAPYPKEKKRSSGSNSHQHNHHHHRRTSHGHRDKDKQKSKSRTKVKPPKNVDTIDKMDVTGLFGGSFHHDGPFDACTPQRNKNNKVAPVLAFPADGPNNTVGGRTSKKSTLDEVFGRETVDDDSETLNQLQDRAYLFNKANSSTTTLDAIKPNSKNITQFDSKMKTELVHGPITMGLGSTTFLDGAPASSAAIEQDVINHAQESRRKNSIARKKSLPSRRHLQVNNNNLKLVKTHSGHLEQKDVDDNRTSVPVTATQGSGHEDVVKKENTGNKLLRRVKSLKTSKKH",binds
2,"Pal1-GFP (protein, UniProt Q05518 1-499) MENRNSSTSSRPFSVNNPFRNATVDSSINQYKNDSQFQEWAKNQSRTNSFDMPQLNTRTSSQLSFPNIPEDEPQRNADQQGAFYSGLESFSSGSLSPPSRPLSSKNPFLDDVSSATDFRRSPPPVSRNKNHPTAKEEKEQLRQRYLEESDVSTVGNTRENTDLPPSYEEITSTNGSRRAYPKEKVSRPSSHREHSNSGTYISRRSSSHHHREASSSSTPSKKGKRKSKVIVPKNVDTIDKLDVTGLFGGSFHHDGPFDAVTPHRNKNNKAAPVLAFPVDGPNSTIGGASTKKSALDEVFGRDDTDDSDIYQYSSQTLRRGGDTQDAIKANVGNVQQMDAKNKTELVHGPVTAGLGSSTFLDGAPASSAAIRNDIKAHSYHNRNGGLQRNKSLSQRLGLGGSGDSNAPMTGVRRNLSLSRDNYDVGHSNEGVRRSKTVNSPNRTHKSNYTTDFDGQDDHNEDEEDVYLGVRYNEPNMKKKSTGSKLLSRVKSLKVGRKSQ",binds
